Laboratory results published in publication PMC4351679.

Biological target: HerA-C-His (Sulfolobus islandicus)
Test: pull-down; His-tagged bait on nickel-agarose beads; proteins mixed at 70°C for 30 min in 25 mM Tris-HCl pH 9.0, 200 mM NaCl; wash with 25 mM imidazole, elution with 250 mM imidazole; Western blot with protein-specific antibodies; both purified

| Binder | binding |
| --- | --- |
| Hjc (SiRe_1431), recombinant (enzyme, UniProt F0NID3 1-143) MNAKKRKGSAVERNIVGKLRDKGFAVVRAPASGSKRKDPIPDIIALKSGVIILIEMKSRKDKEGKIYVRREQAEGIMEFARKSGGTLFLGVKKPGVLKFIPFDKLRRTETGNYVADSEIEGLDLEDLVRLVEAKVSKTLDNFL | binds weakly |
| PIN-domain ATPase (SiRe_1432), recombinant, without tag (enzyme, UniProt F0NID4 1-505) MNDLMLDKSALLFGVSKYLEKGIITGNVLIHKSLLAELERESNDGLVSAEIALDEVKKLKDITERILVNFEIVGDDSKKGEANELSREYCLEKGCIIVTADETQKKICDAMGIQYNFLQPLKQGLSFESFFDDETMSLHIKEDTVPRAKKGKPGNWKFVNLSDKPMLSTDVRMIANEIINAVRLIKGSFVEIERRGSLIIQLGNYRVVITRPPLSDGWEITITRPVVRKRLEDYNLDERLIKRLEERAEGIIIAGAPGMGKTTFAQALAEYYMRLGKIVKTIESPRDMHLPPEITQYSKNYAEIGELHDILLLSRPDYTVYDEMRNDEDFKLYVDLRLAGVGMVGVVHATSPIDAIHRFVNRVDIGTIPNILDTIIFINSGNVSKVYTLEMTVKVPAGLKEADLARPVVEIKDLATGNTEYEIYVFGEQTMIVPVNRGITMSNMEFKISKIVNNIIPNATVKYEDGEYVIVIPKEEIGKYNRKLVQRLKRLEKKNNIKIKIKLSD | binds weakly |

No constants are given. Whether binding was seen depends on the method and setting. Binding calls can cover weak binding; strength is not graded here. Where a sequence is shown, tags or fusion partners need not be part of it.
